The record followed here is publication PMC10202382.

By UniProt entry, the sequences of proteins in these tests, tags left out.
UniProt Q08460: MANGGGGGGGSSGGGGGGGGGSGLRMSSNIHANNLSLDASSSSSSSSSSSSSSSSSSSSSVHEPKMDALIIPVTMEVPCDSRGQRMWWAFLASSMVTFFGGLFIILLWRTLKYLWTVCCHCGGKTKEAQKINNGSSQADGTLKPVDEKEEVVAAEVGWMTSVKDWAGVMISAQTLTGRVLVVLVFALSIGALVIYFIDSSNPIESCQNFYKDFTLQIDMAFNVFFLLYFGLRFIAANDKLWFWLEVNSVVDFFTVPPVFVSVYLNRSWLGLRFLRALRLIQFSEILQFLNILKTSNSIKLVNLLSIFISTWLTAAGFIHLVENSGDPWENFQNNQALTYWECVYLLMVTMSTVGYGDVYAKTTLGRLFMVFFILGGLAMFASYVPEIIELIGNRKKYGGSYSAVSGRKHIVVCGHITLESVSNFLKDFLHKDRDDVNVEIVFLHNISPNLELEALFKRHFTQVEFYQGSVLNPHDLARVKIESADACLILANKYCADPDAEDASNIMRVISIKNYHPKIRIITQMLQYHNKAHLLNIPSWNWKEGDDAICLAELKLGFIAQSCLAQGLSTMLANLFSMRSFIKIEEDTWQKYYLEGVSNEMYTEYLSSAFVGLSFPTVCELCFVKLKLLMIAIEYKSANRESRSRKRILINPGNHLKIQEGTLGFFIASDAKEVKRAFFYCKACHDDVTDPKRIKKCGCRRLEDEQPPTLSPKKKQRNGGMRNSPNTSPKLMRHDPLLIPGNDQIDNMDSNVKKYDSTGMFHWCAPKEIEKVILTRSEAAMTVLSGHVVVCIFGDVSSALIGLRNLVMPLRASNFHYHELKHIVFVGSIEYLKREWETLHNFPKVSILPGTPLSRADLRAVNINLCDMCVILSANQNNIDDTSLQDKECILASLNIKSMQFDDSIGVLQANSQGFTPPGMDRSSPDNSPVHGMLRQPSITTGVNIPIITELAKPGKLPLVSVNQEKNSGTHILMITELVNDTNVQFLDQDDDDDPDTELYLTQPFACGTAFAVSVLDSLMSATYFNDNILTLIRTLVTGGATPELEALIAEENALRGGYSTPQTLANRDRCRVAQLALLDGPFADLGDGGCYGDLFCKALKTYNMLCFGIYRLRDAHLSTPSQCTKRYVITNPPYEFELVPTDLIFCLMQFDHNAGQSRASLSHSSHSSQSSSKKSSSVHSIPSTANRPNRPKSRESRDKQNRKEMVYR

Results are given in words; binding and its absence hold for the method and conditions named. Binding seen in cells or lysates may run through a third protein. Some results given as binding are weak or reduced against the parent protein; the word gives no strength.

For the test, the target named is cyclin-dependent kinase 5 (CDK5), endogenous in mouse striatum (mouse (endogenous in striatum)) (UniProt P49615). Briefly: co-IP; striatum lysate precipitated with an anti-CDK5 antibody (IgG as control), blot probed with an anti-BK channel antibody; endogenous proteins.

“large-conductance Ca2+-activated K+ channel (BK channel), endogenous in mouse striatum (from UniProt Q08460 1-1209)”: the binding entry is reported as “binds”.
